Assay results reported in PubChem BioAssay AID2685 (National Center for Advancing Translational Sciences (NCATS), 2010).
The list shows a part of the results. Further columns of the screen follow, without active or inactive calls. Compounds called inactive in the main read-out are mostly missing here. The note in brackets gives the kind of curve behind each potency; many fits are weak.

Test: qHTS Assay for Lipid Storage Modulators in Drosophila S3 Cells;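 as to cell number change: cells counted by Cell Tracker Red CMTPX staining in the red channel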
Details: BODIPY lipid droplet fluorescence, 18-24 h; for cell number change: measured here: cell count max response, cells fed with added oleic acid
Summary of the method: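 Drosophila S3 cells got compounds at several concentrations plus oleic acid (400 uM solution). Laser-scanning cytometry with 488 nm excitation read lipid droplets at 500-530 nm and cells at 575-640 nm. Percent activity was relative to 20 uM Triacsin C.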

[1] = measured here: cell number channel AC50, cells fed with added oleic acid
[2] = measured here: lipid fluorescence (Fed channel) AC50, cells fed with added oleic acid

**Q.** With O=C1COc2ccc(C(=O)CSc3nnnn3-c3ccccc3)cc2N1 as the molecule, how does the AC50 [1] read?
**A.** Its AC50 is 6.51 µM [rising, single point].

**Q.** Which cell number change does the source give for c1ccc(-c2nc(-c3cccnc3)n[nH]2)cc1 here?
**A.** Its cell number change is 8.62%.

**Q.** And the AC50 [2]?
**A.** Its AC50 is 0.411 µM [rising, full curve, poor fit].

**Q.** For O=c1c2ccccc2cnn1Cc1n[nH]c(=S)n1-c1cc(Cl)cc(Cl)c1, which cell number change is on record?
**A.** Its cell number change is -16.4%.

**Q.** What about the AC50 [1] of the same molecule?
**A.** The AC50 was 6.51 µM [rising, single point].

**Q.** And the AC50 [2]?
**A.** Its AC50 is 0.13 µM [rising, partial curve, poor fit].

**Q.** With CCOc1ccc(N(CC(=O)N2CCN(c3ccccc3OC)CC2)S(=O)(=O)c2ccc(C)cc2)cc1 as the molecule, how does the cell number change read?
**A.** The cell number change was -37.3%.

**Q.** And the AC50 [1]?
**A.** The AC50 was 14.6 µM [falling, single point].

**Q.** Which results are given for O=C(O)c1ccc(Sc2ccccn2)c([N+](=O)[O-])c1?
**A.** cell number change: -30.7%; AC50 [1]: 6.51 µM [falling, single point]

**Q.** For CCOC(=O)[C@@H](CCc1ccccc1)N[C@H](C)C(=O)N1[C@H](C(=O)O)C[C@@H]2CCC[C@@H]21, which cell number change is on record?
**A.** The cell number change was 8.99%.

**Q.** For COc1cccc(N2CCN(CC(=O)NC(=O)NC3CCCCC3)CC2)c1, which cell number change is on record?
**A.** Its cell number change is -9.09%.

**Q.** What does the source list for O=C(NCCN1CCOCC1)c1cc(-c2cccc(Cl)c2)on1?
**A.** cell number change: 10.4%; AC50 [2]: 23.1 µM [rising, single point]

**Q.** Which cell number change does the source give for CC(C)[C@H](CO)Nc1nc(Nc2ccc(Cl)c(C(=O)O)c2)c2ncn(C(C)C)c2n1 here?
**A.** Its cell number change is -5.73%.

**Q.** And the AC50 [2]?
**A.** The AC50 was 6.51 µM [falling, single point].

**Q.** For COc1cc(NC(=O)NCc2ccncc2)cc(OC)c1OC, which cell number change is on record?
**A.** Its cell number change is -1.72%.

**Q.** And the AC50 [1]?
**A.** The AC50 was 0.517 µM [rising, single point].

**Q.** What does the source list for COc1ccccc1N=Nc1c(C)[nH][nH]c1=O?
**A.** cell number change: -16.7%; AC50 [2]: 0.58 µM [rising, single point]

**Q.** With Cc1ccc(CNS(=O)(=O)NCc2ccccc2)cc1 as the molecule, how does the AC50 [2] read?
**A.** Its AC50 is 0.116 µM [falling, full curve, poor fit].

**Q.** With Nc1c(C(=O)N2CCOCC2)sc2nc(N3CCOCC3)c3c(c12)CCCC3 as the molecule, how does the cell number change read?
**A.** The cell number change was -34%.

**Q.** What about the AC50 [1] of the same molecule?
**A.** The AC50 was 18.4 µM [falling, single point].

**Q.** What about the AC50 [2] of the same molecule?
**A.** The AC50 was 18.4 µM [falling, single point].

**Q.** Which cell number change does the source give for Cc1cc(Cl)n2nc(C)c(-c3ccc(Cl)cc3)c2n1 here?
**A.** The cell number change was -32.3%.

**Q.** And the AC50 [1]?
**A.** The AC50 was 29.1 µM [falling, single point].

**Q.** For Cc1cnc(N2C(=O)c3ccc([N+](=O)[O-])cc3C2=O)s1, which cell number change is on record?
**A.** Its cell number change is -24.4%.

**Q.** Which cell number change does the source give for CCn1ncc(NC(=S)Nc2ccc3c(c2)OCO3)c1C(N)=O here?
**A.** The cell number change was -2.71%.

**Q.** And the AC50 [1]?
**A.** The AC50 was 0.13 µM [rising, full curve, poor fit].

**Q.** And the AC50 [2]?
**A.** The AC50 was 6.51 µM [rising, partial curve, poor fit].

**Q.** Which cell number change does the source give for CCN(CC)S(=O)(=O)c1ccc(N2CCOCC2)c(NC(=O)COc2ccc(OC)cc2)c1 here?
**A.** Its cell number change is 7.12%.

**Q.** And the AC50 [2]?
**A.** The AC50 was 0.326 µM [rising, partial curve, poor fit].

**Q.** With CCc1nnc(NC(=O)Cc2ccc(Br)cc2)s1 as the molecule, how does the cell number change read?
**A.** Its cell number change is 31.2%.

**Q.** And the AC50 [2]?
**A.** Its AC50 is 36.6 µM [rising, single point].

**Q.** Which results are given for COc1ccccc1C(=O)NNC(=O)C1CCN(C(=O)OC(C)(C)C)CC1?
**A.** cell number change: -13.3%; AC50 [2]: 0.58 µM [rising, single point]

**Q.** With O=C(COc1cccnc1[N+](=O)[O-])N1CCN(C(=O)c2ccco2)CC1 as the molecule, how does the cell number change read?
**A.** Its cell number change is 18.8%.

**Q.** What about the AC50 [1] of the same molecule?
**A.** The AC50 was 4.11 µM [rising, single point].

**Q.** What about the AC50 [2] of the same molecule?
**A.** The AC50 was 6.51 µM [rising, single point].

**Q.** Which cell number change does the source give for CC(=O)c1ccc(S(=O)(=O)N2CCN(C(=O)c3ccc(N)c([N+](=O)[O-])c3)CC2)cc1 here?
**A.** Its cell number change is 16.9%.

**Q.** And the AC50 [1]?
**A.** The AC50 was 0.146 µM [rising, single point].

**Q.** What about the AC50 [2] of the same molecule?
**A.** The AC50 was 6.51 µM [rising, full curve, poor fit].

**Q.** For COc1ccc([C@]23Cc4cc(C#N)ccc4C(O2)c2c(c4ccc(OC)cc4oc2=O)O3)cc1, which cell number change is on record?
**A.** The cell number change was 16.2%.

**Q.** And the AC50 [2]?
**A.** The AC50 was 5.31 µM [rising, single point].

**Q.** Which cell number change does the source give for COc1cc(OC)c(OC)cc1CNCCNC(=O)c1ccco1 here?
**A.** Its cell number change is 28.6%.

**Q.** Which results are given for O=[N+]([O-])c1ccc(O)c(C=Nc2ccc3oc(Cc4ccc(Cl)cc4)nc3c2)c1?
**A.** cell number change: -28.3%; AC50 [2]: 29.1 µM [falling, single point]

**Q.** With CCOC(=O)N1CCC(NC(=O)CCC(=O)c2ccccc2)CC1 as the molecule, how does the cell number change read?
**A.** The cell number change was 8.86%.

**Q.** With COc1ccccc1C(=O)Nc1cccc(NC(C)=O)c1 as the molecule, how does the cell number change read?
**A.** Its cell number change is -10.8%.

**Q.** And the AC50 [2]?
**A.** Its AC50 is 3.26 µM [rising, single point].

**Q.** With COc1ccc(NC(=O)CSc2nnc(-c3ccco3)n2N)cc1Cl as the molecule, how does the cell number change read?
**A.** The cell number change was -10.1%.

**Q.** For Cc1cc(C)n(-c2nc3c(c(=O)[nH]c(=O)n3C)n2CC(O)c2ccccc2)n1 (stereo unspecified), which AC50 [2] is on record?
**A.** Its AC50 is 5.8 µM [rising, single point].

**Q.** Which cell number change does the source give for COc1cc2nc(COc3ccc(C#N)cc3)n(CC#N)c(=O)c2cc1OC here?
**A.** The cell number change was -13.1%.

**Q.** And the AC50 [2]?
**A.** Its AC50 is 0.103 µM [rising, partial curve, poor fit].

**Q.** With COc1ccc(C2=NOC(C(=O)N3CCCc4ccccc43)C2)cc1 (stereo unspecified) as the molecule, how does the cell number change read?
**A.** Its cell number change is -16.5%.

**Q.** Which cell number change does the source give for COc1ccc(CN(CCCN2CCOCC2)C(=O)Nc2cccc(Cl)c2)cc1OC here?
**A.** Its cell number change is -5.81%.

**Q.** What about the AC50 [2] of the same molecule?
**A.** The AC50 was 1.03 µM [rising, full curve, poor fit].

**Q.** For CC(=O)Nc1ccc(C(=O)OCC(=O)Nc2ccccc2F)cc1, which AC50 [2] is on record?
**A.** Its AC50 is 3.66 µM [rising, single point].

**Q.** With CC(=O)c1ncnn1CC(=O)c1ccc(Cl)cc1Cl as the molecule, how does the cell number change read?
**A.** Its cell number change is -25.3%.

**Q.** What about the AC50 [1] of the same molecule?
**A.** Its AC50 is 2.91 µM [falling, partial curve, poor fit].

**Q.** With NC(N)=NS(=O)(=O)c1ccc(N=C2C(=O)Nc3ccccc32)cc1 as the molecule, how does the cell number change read?
**A.** Its cell number change is 12.2%.

**Q.** And the AC50 [1]?
**A.** The AC50 was 0.00461 µM [falling, full curve, poor fit].

**Q.** Which AC50 [2] does the source give for O=C(NCc1cccs1)C1CCN(S(=O)(=O)c2cccc3cccnc23)CC1 here?
**A.** The AC50 was 0.103 µM [falling, partial curve, poor fit].

**Q.** For Cc1cc(-c2nnc(SCC(=O)c3ccc4c(c3)OCCO4)o2)no1, which cell number change is on record?
**A.** The cell number change was -28.8%.

**Q.** What about the AC50 [1] of the same molecule?
**A.** The AC50 was 6.51 µM [rising, single point].

**Q.** For CCOC(=O)N1CCC(N(CCN(C)C)C(=S)Nc2ccccc2OCC)CC1, which cell number change is on record?
**A.** Its cell number change is -13.3%.

**Q.** And the AC50 [2]?
**A.** Its AC50 is 3.66 µM [falling, single point].

**Q.** With Cc1ccc(S(=O)(=O)N2CCCCC2)cc1NC(=O)CNC(C)c1ccc(Cl)c(Cl)c1 (stereo unspecified) as the molecule, how does the cell number change read?
**A.** Its cell number change is -11.5%.

**Q.** What about the AC50 [2] of the same molecule?
**A.** The AC50 was 29.1 µM [falling, single point].

**Q.** What does the source list for CC(=O)c1cccc(NC(=O)CNC(=O)Cc2ccccc2)c1?
**A.** cell number change: 35.9%; AC50 [2]: 16.4 µM [rising, partial curve]
